{"source": "patent US8889126B2", "about": "“Methods and compositions for treating neuropathies” (Washington University, priority 2004, dated 2014)", "tested_on": "DRG explant neurons", "assay": "in vitro Wallerian degeneration assay: DRG explant cultures, axonal transection by removal of neuronal cell bodies", "type": "cell-based, mouse", "protocol": "To identify the mechanism of delayed axonal degeneration mediated by the Wld^s protein, we employed an in-vitro Wallerian degeneration model. Primary DRG explant neurons were infected with lentivirus expressing the appropriate proteins, and axons were injured by either removal of the neuronal cell body (transection) or growth in vincristine (toxic).\nMouse DRG explants from E12.5 embryos were cultured in the presence of 1 nM nerve growth factor. Non-neuronal cells were removed from the cultures by adding 5-fluorouracil to the culture medium. Transection of neurites was performed at 10-20 DIV using an 18-gauge needle to remove the neuronal cell bodies. Incubation with β-nicotinamide adenine dinucleotide (Sigma) or Sirtinol (Calbiochem) was performed using conditions indicated in the text or figures.\nLentiviral expression vectors were generated using HEK293T cells as described above. For confirmation of lentivirus-derived protein expression, HEK293T cells were infected with lentivirus and cells were lysed 3 days after infection. These lysates were analyzed by immunoblot to using anti-His tag monoclonal antibody (Qiagen) to detect expression of the respective hexahistidine-tagged proteins. Lentiviral infection of DRG neurons was performed by incubating ˜10^6-10^7 pfu/ml virus with the DRG explant for 24 h beginning 3-7 days prior to axonal transection. The infected neurons were examined under an inverted fluorescent microscope to insure detectable lentivirus-mediated transgene expression in >95% of neurons.\nQuantitative analysis of axonal degeneration was performed as previously described (Zhai, et al., Neuron 39:217-25, 2003). Briefly, the cultures were examined using phase contrast microscopy at the indicated times. Axons with a fragmented, non-refractile appearance were designated as “degenerated.” At each time point, at least 200 singly distinguishable axons were blindly scored from several randomly taken images of each culture. Each condition was tested in triplicate explants in each experiment. Results were obtained from 2-4 independent experiments for each condition. Statistical analysis was performed by Student's T test. For calculations of neurite-covered area, digitally captured images from quadruplicate samples of two independent experiments were analyzed using analysis 3.1 software (Soft Imaging System, Lakewood, Colo.).\nCell culture, in vitro axotomy, and quantification of axonal degeneration. Mouse DRG explants from E12.5 embryos were cultured in the DMEM containing 10% FCS and 1 nM nerve growth factor. Non-neuronal cells were removed from the cultures by adding 5-fluorouracil to the culture media. Transection of neurites was performed at 14-21 DIV using an 18-gauge needle to remove the neuronal cell bodies. Lentiviral expression vectors were generated. Lentiviral infection was performed 3-7 days prior to axonal transection for 24 hr. Quantitative analysis of neurite degeneration was performed.", "note": "Entries after “also recorded” stand apart in the source; their conditions may differ. For at least one compound, name, drawing or mass did not settle the structure."}
{"smiles": "NC(=O)c1ccc[n+]([C@@H]2O[C@H](COP(=O)([O-])OP(=O)(O)OC[C@H]3O[C@@H](n4cnc5c(N)ncnc54)[C@H](O)[C@@H]3O)[C@@H](O)[C@H]2O)c1", "note": "[NAD, β-nicotinamide adenine dinucleotide]", "values": [{"measurement": "protection against axonal degeneration (summary statement of the in vitro study)", "value": "have axon saving activity; also recorded: protected against axonal degeneration"}, {"measurement": "protective effects on axons", "setting": "1 mM added at the time of axonal transection or up to 8 hr prior to injury", "value": "no protective effects on axons"}, {"measurement": "neurite protection from degeneration", "setting": "1 mM in culture media for 24 hours before neurite transection", "value": "enough to protect axon from degeneration"}, {"measurement": "axon sparing", "setting": "1 mM, longer incubation prior to injury (greatest effects after at least 24 h pre-treatment)", "value": "significant axon sparing"}, {"measurement": "axonal degeneration after transection", "setting": "0.1-1 mM added 24 hr prior to axotomy", "value": "significantly delayed axonal degeneration"}, {"measurement": "axonal protection compared with lentivirus mediated NMNAT1 expression", "setting": "exogenously applied, added 24 hr prior to axotomy", "value": "slightly less effective"}]}
